# Experiment: soluble on expression in E. coli; label from the status in PepcDB or PDB records
row,Sequence,soluble on expression in E. coli
1,MSIVRRSNVFDPFADLWADPFDTFRSIVPAISGGGSETAAFANARMDWKETPEAHVFKADLPGVKKEEVKVEVEDGNVLVVSGERTKEKEDKNDKWHRVERSSGKFVRRFRLLEDAKVEEVKAGLENGVLTVTVPKAEVKKPEVKAIQISG,soluble
2,MSKRDYYEVLGVERGATEADLKKAYRRLAMKYHPDRNPGDKESEDKFKEANEAYEVLSDASKRAAFDQYGHAGVDPSMGGGGAGFGGANFSDIFGDVFSDFFGGGGRGGGRGGAQRGSDLRYTLELNLEEAVRGTTVSIRVPTLVNCQPCDGSGAKKGSTPSTCPTCGGIGQVRMQQGFFSVQQTCPRCHGQGKIITDPCTSCHGEGRVEEYKTLSVKVPAGVDTGDRIRLSGEGEAGTHGGPTGDLYVVISVREHEIFQRDGKHLYCEVPISYTDAALGGELEVPTLDGRVKLKIPEGTQTGKQFRLRGKGVAPVRGGGAGDLLCRVAVETPVLEHHHHHH,not soluble
3,MSLGDLKLWYKQPAGTWVEALPVGNSRMGAMVYGGTAREELQLNDETMWGGSPYRNDKPEALESLPQVRELIFAGKNMEAQNLIQENFYAGKHGMPYQTIGSLIIETPGHEKVTDYYRDLDLERAVATTRYKVDGVTFQREVFASFPDKVVVVRLTADRPGKLNFKVGYVSPLEHKVSRKGKKLVLTGKGRDHEGVKGLIRMETQTQADVDGGKVKIDDQNITVEGADSVTLYVSSGTNFINYHDISGNESKKASGYLSLALGRPYSQVLQEHIALYKEQFDRVRLDLGTSERAKLETVKRIELFNEGKDVSLAVLLFQYGRYLLISSSQPGGQPANLQGIWNNKLAAPWDGKYTININTEMNYWPAEVTNLSETHQPLFEMVKELSVTGRETARTMYGCNGWVAHHNTDIWRATGPVDKAFYGTWPMGGAWLTTHLWQHYLYSGDKLFLSEAYPALKGAADFYLDYLTEHPEYGWMVTAPSMSPEHGPSGEDTKKASTIVSGCTMDNQIIFDVLSNALHASRILKMSASYQDSLRSMLNRLAPMQIGKYNQLQEWLEDLDNPNDKHRHISHVYGLFPSNQISPYTHPLLFQAAKNTLLQRGDEATGWSIGWKVNLWARLLDGNHAFRIINNMLKLLPGDEVKEAYPQGRTYPNLFDAHPPFQIDGNFGYTAGVAEMLLQSHDGAVHLLPALPDAWATGSVQGLVARGGFVVDMNWNGVQLDKAKIHSRLGGNLRLRSYVPLREGHHHHHH,not soluble
4,MSLKSERRGIHVDQSDLLCKKGCGYYGNPAWQGFCSKCWREEYHKARQKQIQEDWELAERLQREEEEAFASSQS,soluble
5,NTTAPSLLSAYGLNSYTSSNSGSVTKAAESTETAVADSASNKHEANQIRSGDFSIDSAIKKAADKYGVDEKLIRAVIKQESGFNAKAVSGAGAMGLMQLMPSTASSLGVSNPLDPQQNVEGGTKYLKQMLDKYDGNVSMALAAYNAGPGNVDRYGGIPPFQETQNYVKK,not soluble
6,SAKFILRKAEPKDVSDILRLIKELAKFEEMEEQVVLTEKELLEDGFGDHPFYHCVVAEVPKDNQSIEGYTVVGFAMYYFTYDPWIGKLLYLEDFYVMKEFRGYGMGSEILKMLSETAVKTRCSGMHFIVAEWNTTSIEFYKRRGASDLSHEEGWRLYEIDKCNLLKMSSK,soluble
7,SDSCVIPLRHGGLSLVQTTDFFYPLVEDPYMMGRIACANVLSDLYAMGITECDNMLMLLSVSQKMNEKERDLVLPLMMKGFRDAAEEGGTSVTGGQTVINPWIIIGGVASVVCQPNDFILPDGAVPGDVLVLTKPLGTQVAVNAHQWLDIPEKWNKIKLVISREEVEQAYQEAMLNMATLNRTAAALMHKFNAHAATDITGFGIIGHARNLAKQQKNDVAFVIHNLPIISKMAAISKAGGNLFGLLQGTSSETSGGLLICLPREQAARFCAEMKSSRMGLLGAGQDGGVGDGQQAWIIGIVEKGNRCARIIDKPRIIEVPYRGSVVSVQEGSNNNASPPEVQLA,soluble
8,SMVLKVEELVTGKKNGNGEAGEFLPEDFRDGEYEAAVTLEKQEDLKTLLAHPVTLGEQQWKSEKQREAELKKKKLEQRSKLENLEDLEIIIQLKKRKKYRKTKVPVVKEPEPEIITEPVDVPTFLKAALENKLPVVEKFLSDKNNPDVCDEYKRTALHRACLEGHLAIVEKLMEAGAQIEFRDMLESTAIHWASRGGNLDVLKLLLNKGAKISARDKLLSTALHVAVRTGHYECAEHLIACEADLNAKDREGDTPLHDAVRLNRYKMIRLLIMYGADLNIKNCAGKTPMDLVLHWQNGTKAIFDSLRENSYKTSRIATF,soluble

# Reference: the DeepSol protein solubility set
